This passage reports binding results from paper doi:10.1101/2022.07.30.502139.

Chains of the proteins cited; added tags and fusions are not shown. Lines headed by an entry give the natural chain unless they say otherwise; changes in a name come on top.
UniProt Q9XIP2: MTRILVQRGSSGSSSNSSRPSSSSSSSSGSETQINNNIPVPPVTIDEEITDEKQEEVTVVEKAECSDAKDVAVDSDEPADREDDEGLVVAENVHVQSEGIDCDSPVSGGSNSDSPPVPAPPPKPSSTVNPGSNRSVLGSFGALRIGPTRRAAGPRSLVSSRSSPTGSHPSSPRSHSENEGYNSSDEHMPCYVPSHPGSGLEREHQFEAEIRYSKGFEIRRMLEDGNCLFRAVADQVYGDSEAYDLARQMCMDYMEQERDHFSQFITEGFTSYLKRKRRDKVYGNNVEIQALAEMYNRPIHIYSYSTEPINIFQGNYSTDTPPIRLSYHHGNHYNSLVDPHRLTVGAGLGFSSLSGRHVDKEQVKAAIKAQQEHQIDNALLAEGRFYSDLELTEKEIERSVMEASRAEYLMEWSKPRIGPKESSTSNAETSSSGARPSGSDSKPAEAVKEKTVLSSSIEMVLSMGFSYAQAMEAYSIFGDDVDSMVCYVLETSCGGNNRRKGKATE

For test [1], the target named is OTLD1 tagged with a YFP half for BiFC (Arabidopsis) (UniProt Q9XIP2). Put plainly: split reporter.
The target of test [2] is OTLD1-RFP (Arabidopsis). Put plainly: FRET or BRET. For orientation: In BRET a luciferase serves as donor, and the signal depends on an acceptor being close.
In test [3] the target is OTLD1-RFP (Arabidopsis). In words: FRET or BRET. The source holds these as a separate data set.

Where two headings read alike, the source gives them in different places. Results are given in words; binding and its absence hold for the method and conditions named. In cells and extracts the contact can be indirect. For some assays here: Binding can be weak; no strength is given. Tags and fused reporters may be left off the sequences shown.

B1: LSH4 tagged with a YFP half for BiFC (protein, UniProt Q9LW68 1-195)
chain: MDHIIGFMGTTNMSHNTNLMIAAAATTTTTSSSSSSSSGGSGTNQLSRYENQKRRDWNTFGQYLRNHRPPLSLSRCSGAHVLEFLRYLDQFGKTKVHTHLCPFFGHPNPPAPCACPLRQAWGSLDALIGRLRAAFEENGGSPETNPFGARAVRLYLREVRDSQAKARGISYEKKKRKRPPPPLPPAQPAISSSPN
Regarding B1, in test [1], the binding result is “no binding”.

B2: LSH4-GFP (protein, UniProt Q9LW68 1-195)
chain: MDHIIGFMGTTNMSHNTNLMIAAAATTTTTSSSSSSSSGGSGTNQLSRYENQKRRDWNTFGQYLRNHRPPLSLSRCSGAHVLEFLRYLDQFGKTKVHTHLCPFFGHPNPPAPCACPLRQAWGSLDALIGRLRAAFEENGGSPETNPFGARAVRLYLREVRDSQAKARGISYEKKKRKRPPPPLPPAQPAISSSPN
With B2, the binding result in test [2] and in test [3] was “no binding” each time.

B3: LSH10 tagged with a YFP half for BiFC (protein, UniProt Q9S7R3 1-177)
chain: MSSPRERGKSLMESSGSEPPVTPSRYESQKRRDWNTFGQYLKNQRPPVPMSHCSCNHVLDFLRYLDQFGKTKVHVPGCMFYGQPEPPAPCTCPLRQAWGSLDALIGRLRAAYEENGGPPETNPFASGAIRVYLREVRECQAKARGIPYKKKKKKKPTPEMGGGREDSSSSSSSFSFS
In the case of B3, the binding result in test [1] is on record as “binds”.

B4: LSH10-GFP (protein, UniProt Q9S7R3 1-177)
chain: MSSPRERGKSLMESSGSEPPVTPSRYESQKRRDWNTFGQYLKNQRPPVPMSHCSCNHVLDFLRYLDQFGKTKVHVPGCMFYGQPEPPAPCTCPLRQAWGSLDALIGRLRAAYEENGGPPETNPFASGAIRVYLREVRECQAKARGIPYKKKKKKKPTPEMGGGREDSSSSSSSFSFS
In the case of B4, in test [2], the binding entry was “binds”.
